Test results reported in article PMC9731852.
No constants are given. Whether binding was seen depends on the method and setting. Binding seen in cells or lysates may run through a third protein. A result given as binding can be weak or reduced; the word gives no strength. Tags and fused reporters may be left off the sequences shown.

Sequences of proteins named here, by UniProt entry; tags and fusion partners are left off. A change or cut given only in a name is not applied to a line headed by its entry.
UniProt O15260: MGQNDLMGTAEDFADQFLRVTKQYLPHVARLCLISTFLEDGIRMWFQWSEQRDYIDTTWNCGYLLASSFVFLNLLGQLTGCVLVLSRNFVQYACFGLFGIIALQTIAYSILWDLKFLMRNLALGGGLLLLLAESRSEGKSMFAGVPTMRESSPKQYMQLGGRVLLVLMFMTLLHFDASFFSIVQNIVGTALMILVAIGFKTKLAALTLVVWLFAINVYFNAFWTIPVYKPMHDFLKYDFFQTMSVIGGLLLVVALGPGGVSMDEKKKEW
UniProt Q8N474: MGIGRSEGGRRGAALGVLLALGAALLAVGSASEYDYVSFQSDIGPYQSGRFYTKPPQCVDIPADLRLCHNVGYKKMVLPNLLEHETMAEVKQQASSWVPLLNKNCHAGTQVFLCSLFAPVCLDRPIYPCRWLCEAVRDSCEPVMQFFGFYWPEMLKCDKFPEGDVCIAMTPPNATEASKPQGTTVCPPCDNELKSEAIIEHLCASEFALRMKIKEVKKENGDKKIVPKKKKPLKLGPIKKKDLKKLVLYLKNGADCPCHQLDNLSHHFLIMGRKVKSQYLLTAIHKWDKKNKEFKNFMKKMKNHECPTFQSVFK
UniProt Q7Z5Y6: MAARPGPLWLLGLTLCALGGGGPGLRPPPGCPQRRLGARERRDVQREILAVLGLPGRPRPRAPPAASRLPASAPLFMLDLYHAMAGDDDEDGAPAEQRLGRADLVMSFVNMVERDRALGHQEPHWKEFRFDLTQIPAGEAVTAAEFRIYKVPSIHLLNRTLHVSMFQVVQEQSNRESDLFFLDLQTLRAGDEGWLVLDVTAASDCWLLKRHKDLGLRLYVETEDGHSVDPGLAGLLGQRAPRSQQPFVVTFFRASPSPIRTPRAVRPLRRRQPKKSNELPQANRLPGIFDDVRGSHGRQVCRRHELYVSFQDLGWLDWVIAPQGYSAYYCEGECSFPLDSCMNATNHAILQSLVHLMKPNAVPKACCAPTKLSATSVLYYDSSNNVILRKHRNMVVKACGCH

What was measured:
[1] = target: T1, GST-tagged human SURF4^49–60 (predicted first luminal loop of surfeit locus protein 4) (human) (UniProt O15260); experiment: pull-down; about 5 μg GST-SURF4^49–60 (WT or MT) on 10 μl GSH beads, incubated with 200 μl of 0.5 mg/ml lysate of transfected HEK293T cells in KOAc buffer (110 mM KOAc, 2 mM Mg(OAc)2, 20 mM Hepes, pH 7.2), 4 °C overnight; washed with 0.5 M KOAc buffer and KOAc buffer; immunoblot with anti-HA; only the target purified
T1 sequence: SEQRDYIDTTWN

[2] = target: T2, GST-tagged human SURF4^49–60 with E50, D53 and D56 substituted to alanine (triacidic motif-mutated) (human) (UniProt O15260); experiment: as above
T2 sequence: SAQRAYIATTWN

Substance | binding [1] | binding [2]
SFRP1-HA with the (K/R)(K/R)(K/R)XX(K/R)(K/R) motif deleted (from UniProt Q8N474) | binds | 
C-terminal 3 × HA-tagged BMP8A (bone morphogenetic protein 8A) (from UniProt Q7Z5Y6) | binds | binds
polybasic motif–depleted BMP8A-HA (from UniProt Q7Z5Y6) | binds | 
